The structures appear in SMILES notation. Most entries show no effect beyond the scatter of the controls.

We go through five compounds from the supplement of paper PMC4862054.

What all share (test): normalised response (% of control), CellTox Green; higher = less cell death (100 = DMSO, 0 = benzethonium chloride kill control)
Holding throughout (conditions): incubation time: 72 h

The test system of experiment [1] is BT-474. The method, then: (§1)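 DSRT, 72 h incubation, CellTox Green / CellTiter-Glo readout. Signal is normalised to DMSO and benzethonium chloride controls. Value is the normalised response at dose 2.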
Experiment [2] concerns BT-549. Here is the method: as §1
The test system of experiment [3] is CAL-120. The method, then:
as §1

The subject of experiment [4] is CAL-148. The method, then: as §1
The subject of experiment [5] is CAL-51. Here is the method: as §1
Experiment [6] concerns CAL-85-1. The method, then: as §1
Experiment [7] relates to DU-4475. The method, then: as §1
The test system of experiment [8] is HCC1143. Here is the method: as §1
The test system of experiment [9] is HCC1599. The method, then:
as §1

The subject of a further experiment is HCC1937. The method, then: as §1
Experiment [10] deals with HDQ-P1. The method, then:
as §1

Experiment [11] has as its system Hs578T. Here is the method:
as §1

In experiment [12] the test system is MDA-MB-231. Here is the method:
as §1

A further experiment deals with MDA-MB-436. Here is the method: as §1
Experiment [13] concerns MDA-MB-453. Here is the method:
as §1

Experiment [14] concerns MFM-223. The method, then:
as §1

Experiment [15] concerns MCF-10A. Here is the method: as §1
The test system of experiment [16] is BT-474. Here is the method:
(§2)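 DSRT, 72 h incubation, CellTox Green / CellTiter-Glo readout. Signal is normalised to DMSO and benzethonium chloride controls. Value is the normalised response at the lowest tested concentration.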
The source holds these as a separate data set.

The test system of experiment [17] is BT-549. The method, then: as §2
This is another data set of the same source.

The subject of experiment [18] is CAL-120. The method, then:
as §2
The source holds these as a separate data set.

Experiment [19] relates to CAL-148. Here is the method:
as §2
This is another data set of the same source.

For experiment [20], the system named is CAL-51. The method, then:
as §2
The source holds these as a separate data set.

Experiment [21] relates to CAL-85-1. Here is the method: as §2
The source holds these as a separate data set.

For experiment [22], the system named is DU-4475. Here is the method: as §2
The source holds these as a separate data set.

The subject of experiment [23] is HCC1143. Here is the method: as §2
This is another data set of the same source.

For experiment [24], the system named is HCC1599. The method, then:
as §2
The source holds these as a separate data set.

Experiment [25] relates to HDQ-P1. The method, then:
as §2
This is another data set of the same source.

Experiment [26] concerns Hs578T. Here is the method:
as §2
This is another data set of the same source.

Experiment [27] concerns MCF-10A. Here is the method: as §2
The source holds these as a separate data set.

Experiment [28] has as its system MDA-MB-231. The method, then: as §2
The source holds these as a separate data set.

Experiment [29] concerns MDA-MB-453. Here is the method:
as §2
The source holds these as a separate data set.

A further experiment deals with MDA-MB-468. The method, then: as §2
In experiment [30] the test system is MFM-223. Here is the method:
as §2
The source holds these as a separate data set.

With `Cn1cc(C2=Nc3cc(NC(=O)C(N)C4CCCCC4)cc4c3C2=CNNC4=O)cn1` (stereo not given) (10 nM), the normalised response is 96.1% in the experiment on BT-474 [1]; 108% with BT-549 [2]; 96.5% with CAL-120 [3]; 93.5% with CAL-148 [4]; 103% in the experiment on CAL-51 [5]; 100% with CAL-85-1 [6]. The normalised response turned out to be 92.8% with DU-4475 [7]; 80.5% in the experiment on HCC1143 [8]; 94.4% in the experiment with HCC1599 [9]; 96.5% in the experiment on HCC1937; 104% in the experiment with HDQ-P1 [10]; 117% in the experiment with Hs578T [11]. The normalised response in the experiment with MDA-MB-231 [12] is 86.1%; in the experiment with MDA-MB-436, 75%; in the experiment on MDA-MB-453 [13], 90%; in the experiment with MFM-223 [14], 98.1%.

Turning to `C[C@]12CC[C@@H]3c4ccc(OC(=O)N(CCCl)CCCl)cc4CC[C@H]3[C@@H]1CC[C@@H]2O` [Estramustine] (10 nM), the normalised response is 98.3% in the experiment with BT-474 [1]; 115% in the experiment on BT-549 [2]; 101% in the experiment with CAL-120 [3]; 105% with CAL-148 [4]; 86.9% in the experiment with CAL-51 [5]; 93.2% in the experiment with CAL-85-1 [6]. Further, the normalised response was found to be 94.2% in the experiment on DU-4475 [7]; 67% in the experiment with HCC1143 [8]; 93.5% in the experiment on HCC1599 [9]; 100% in the experiment with HCC1937; 114% in the experiment with HDQ-P1 [10]; 105% in the experiment on MCF-10A [15]. The normalised response came to 91.3% in the experiment with MDA-MB-231 [12], 93.8% in the experiment on MDA-MB-436, 71.4% with MDA-MB-453 [13] and 89.1% in the experiment on MFM-223 [14].

Regarding `Cc1cnc(NC(=O)Nc2cc(Br)c(C)cc2OC[C@@H]2CNCCO2)cn1` [Rabusertib] (1 nM), the normalised response came to 104% with BT-474 [1]; 95.3% with BT-549 [2]; 104% in the experiment on CAL-120 [3]; 113% in the experiment on CAL-148 [4]; 115% in the experiment with CAL-51 [5]; 102% with CAL-85-1 [6]. Also, the normalised response in the experiment with DU-4475 [7] amounted to 118%; in the experiment with HCC1143 [8], 119%; in the experiment with HCC1599 [9] it was 122%; with HCC1937 it was 102%; with HDQ-P1 [10], 112%; in the experiment with Hs578T [11], 110%. In addition, the normalised response was determined as 118% in the experiment on MCF-10A [15], 108% in the experiment on MDA-MB-436, 106% with MDA-MB-453 [13] and 103% in the experiment on MFM-223 [14].

For `CN1CCN(CCOc2cc(OC3CCOCC3)c3c(Nc4c(Cl)ccc5c4OCO5)ncnc3c2)CC1` [Saracatinib] (1 nM), the normalised response in the experiment with BT-474 [16] was determined as 97.4%; in the experiment with BT-549 [17] it was 79.6%; in the experiment on CAL-120 [18] it was 99%; in the experiment with CAL-148 [19], 98.9%; with CAL-51 [20], 102%; in the experiment with CAL-85-1 [21] it was 103%. For the same compound, the normalised response came out at 97.5% in the experiment on DU-4475 [22]; 115% in the experiment with HCC1143 [23]; 94% in the experiment on HCC1599 [24]; 93.9% in the experiment on HDQ-P1 [25]; 97.7% in the experiment with Hs578T [26]; 93% in the experiment with MCF-10A [27]. For the same compound, the normalised response with MDA-MB-231 [28] amounted to 89.9%; in the experiment on MDA-MB-453 [29], 102%; in the experiment on MDA-MB-468, 69%; with MFM-223 [30] it was 95.8%.

Consider `CS(=O)(=O)c1ccc(C(=O)Nc2ccc(Cl)c(-c3ccccn3)c2)c(Cl)c1` [Vismodegib] (10 nM), for which the normalised response in the experiment with BT-474 [1] came to 99.8%; in the experiment with BT-549 [2], 90.9%; with CAL-120 [3] it was 97.9%; in the experiment with CAL-148 [4], 95.4%; in the experiment on CAL-51 [5], 97.1%; with CAL-85-1 [6], 101%. The normalised response was 96.2% with DU-4475 [7]; 108% in the experiment on HCC1143 [8]; 92.8% in the experiment on HCC1599 [9]; 105% in the experiment on HDQ-P1 [10]; 111% in the experiment on Hs578T [11]; 98.8% in the experiment with MCF-10A [15]. Further, the normalised response with MDA-MB-231 [12] stood at 96.3%; with MDA-MB-436, 104%; in the experiment on MDA-MB-453 [13], 93.7%; with MFM-223 [14], 101%.
